In the supplement of paper PMC8728848:
This is one part of the list.

What was measured:
Experiment in all cases: glycan array binding signal (z-score within array); higher = stronger binding
Details in all cases: glycan notation: IUPAC condensed, linker removed
[1] = target: Gal(a1-3)GalNAc
Procedure, shortened: (§1)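 The binding signal is a Z-score computed within each array and averaged over linkers. Arrays of the same protein sequence at different concentrations or buffers were also averaged together. Data originate from 3228 arrays in the Consortium for Functional Glycomics database, kept only where the protein sequence was available.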

[2] = target: Gal(a1-3)[Gal(a1-4)]Gal(b1-4)GlcNAc
Procedure, shortened: as §1

[3] = target: Gal(a1-4)Gal(b1-3)GlcNAc(b1-2)Man(a1-3)[Gal(a1-4)Gal(b1-3)GlcNAc(b1-2)Man(a1-6)]Man(b1-4)GlcNAc(b1-4)GlcNAc
Procedure, shortened: as §1

[4] = target: Gal(a1-4)Gal(b1-4)Glc
Procedure, shortened: as §1

[5] = target: Gal(a1-4)Gal(b1-4)GlcNAc
Procedure, shortened: as §1

[6] = target: Gal(a1-4)Gal(b1-4)GlcNAc(b1-2)Man(a1-3)[Gal(a1-4)Gal(b1-4)GlcNAc(b1-2)Man(a1-6)]Man(b1-4)GlcNAc(b1-4)GlcNAc
Procedure, shortened: as §1

[7] = target: Gal(a1-4)Gal(b1-4)GlcNAc(b1-3)Gal(b1-4)Glc
Procedure, shortened: as §1

[8] = target: Gal(a1-4)GlcNAc
Procedure, shortened: as §1

[9] = target: Gal(a1-6)Glc
Procedure, shortened: as §1

[10] = target: Gal(b1-2)Gal
Procedure, shortened: as §1

[11] = target: Gal(b1-3)Gal
Procedure, shortened: as §1

[12] = target: Gal(b1-3)Gal(b1-4)GlcNAc
Procedure, shortened: as §1

[13] = target: Gal(b1-3)GalNAc
Procedure, shortened: as §1

[14] = target: Gal(b1-3)GalNAc(a1-3)[Fuc(a1-2)]Gal(b1-4)Glc
Procedure, shortened: as §1

[15] = target: Gal(b1-3)GalNAc(a1-3)[Fuc(a1-2)]Gal(b1-4)GlcNAc
Procedure, shortened: as §1

[16] = target: Gal(b1-3)GalNAc(b1-3)Gal
Procedure, shortened: as §1

[17] = target: Gal(b1-3)GalNAc(b1-3)Gal(a1-4)Gal(b1-4)Glc
Procedure, shortened: as §1

[18] = target: Gal(b1-3)GalNAc(b1-4)Gal(b1-4)Glc
Procedure, shortened: as §1

[19] = target: Gal(b1-3)GalNAc(b1-4)[Neu5Ac(a2-3)]Gal(b1-4)Glc
Procedure, shortened: as §1

[20] = target: Gal(b1-3)GlcNAc
Procedure, shortened: as §1

[21] = target: Gal(b1-3)GlcNAc(a1-3)Gal(b1-4)GlcNAc
Procedure, shortened: as §1

[22] = target: Gal(b1-3)GlcNAc(a1-6)Gal(b1-4)GlcNAc
Procedure, shortened: as §1

[23] = target: Gal(b1-3)GlcNAc(b1-2)Man
Procedure, shortened: as §1

[24] = target: Gal(b1-3)GlcNAc(b1-2)Man(a1-3)[Gal(b1-3)GlcNAc(b1-2)Man(a1-6)]Man(b1-4)GlcNAc(b1-4)GlcNAc
Procedure, shortened: as §1

[25] = target: Gal(b1-3)GlcNAc(b1-2)Man(a1-3)[Gal(b1-3)GlcNAc(b1-2)Man(a1-6)]Man(b1-4)GlcNAc(b1-4)[Fuc(a1-6)]GlcNAc
Procedure, shortened: as §1

[26] = target: Gal(b1-3)GlcNAc(b1-2)Man(a1-3)[GlcNAc(b1-4)][Gal(b1-3)GlcNAc(b1-2)Man(a1-6)]Man(b1-4)GlcNAc(b1-4)GlcNAc
Procedure, shortened: as §1

[27] = target: Gal(b1-3)GlcNAc(b1-2)[Gal(b1-3)GlcNAc(b1-6)]Man(a1-6)[Gal(b1-3)GlcNAc(b1-2)Man(a1-3)]Man(b1-4)GlcNAc(b1-4)GlcNAc
Procedure, shortened: as §1

[28] = target: Gal(b1-3)GlcNAc(b1-3)Gal(b1-3)GlcNAc
Procedure, shortened: as §1

[29] = target: Gal(b1-3)GlcNAc(b1-3)Gal(b1-4)Glc
Procedure, shortened: as §1

[30] = target: Gal(b1-3)GlcNAc(b1-3)Gal(b1-4)GlcNAc
Procedure, shortened: as §1

[31] = target: Gal(b1-3)GlcNAc(b1-3)Gal(b1-4)GlcNAc(b1-2)Man(a1-3)[Gal(b1-3)GlcNAc(b1-3)Gal(b1-4)GlcNAc(b1-2)Man(a1-6)]Man(b1-4)GlcNAc(b1-4)GlcNAc
Procedure, shortened: as §1

[32] = target: Gal(b1-3)GlcNAc(b1-3)Gal(b1-4)GlcNAc(b1-2)[Gal(b1-3)GlcNAc(b1-3)Gal(b1-4)GlcNAc(b1-6)]Man(a1-6)[Gal(b1-3)GlcNAc(b1-3)Gal(b1-4)GlcNAc(b1-2)Man(a1-3)]Man(b1-4)GlcNAc(b1-4)[Fuc(a1-6)]GlcNAc
Procedure, shortened: as §1

[33] = target: Gal(b1-3)GlcNAc(b1-3)Gal(b1-4)GlcNAc(b1-3)Gal(b1-4)GlcNAc(b1-2)[Gal(b1-3)GlcNAc(b1-3)Gal(b1-4)GlcNAc(b1-3)Gal(b1-4)GlcNAc(b1-6)]Man(a1-6)[Gal(b1-3)GlcNAc(b1-3)Gal(b1-4)GlcNAc(b1-3)Gal(b1-4)GlcNAc(b1-2)Man(a1-3)]Man(b1-4)GlcNAc(b1-4)[Fuc(a1-6)]GlcNAc
Procedure, shortened: as §1

[34] = target: Gal(b1-3)GlcNAc(b1-3)Gal(b1-4)GlcNAc(b1-6)[Gal(b1-3)GlcNAc(b1-3)]Gal(b1-4)Glc
Procedure, shortened: as §1

[35] = target: Gal(b1-3)GlcNAc(b1-3)Gal(b1-4)[Fuc(a1-3)]GlcNAc
Procedure, shortened: as §1

[36] = target: Gal(b1-3)GlcNAc(b1-3)Gal(b1-4)[Fuc(a1-3)]GlcNAc(b1-6)[Gal(b1-3)GlcNAc(b1-3)]Gal(b1-4)Glc
Procedure, shortened: as §1

[37] = target: Gal(b1-3)GlcNAc(b1-3)GalNAc
Procedure, shortened: as §1

[38] = target: Gal(b1-3)GlcNAc(b1-6)Gal(b1-4)GlcNAc
Procedure, shortened: as §1

B1: HA-00510 (Pseudomonas aeruginosa), Q02V39_PSEAB (protein)
chain: GVPIVNIATPNGAGLSNNHFRDYNVGANGLILNNATGKTQGTQLGGIILGNPNLKGQAAQVILNQVTGGNRSTLAGYTEVAGQSARVIVANPHGITCQGCGFINTPRATLTTGKPIMDGQRLERFQVDGGDIVVEGAELNVGNLEQFDLITRSAKLNAKLYAKNLNIVTGRNDVQADSLQATPRAADGSEKPQLAIDSSALGGMYAGAIRLVGTEQGVGVKLAGDMAASGGDIRIDASGKLSLAQASSQGDLKIAAQAVELNGKTYAGGSAEIRSAEELVNRQS
glycan array binding signal (z-score) [1]: -0.17
glycan array binding signal (z-score) [2]: 0.326
glycan array binding signal (z-score) [3]: -0.302
glycan array binding signal (z-score) [4]: -1.36
glycan array binding signal (z-score) [5]: 0.581
glycan array binding signal (z-score) [6]: 1.27
glycan array binding signal (z-score) [7]: 0.322
glycan array binding signal (z-score) [8]: -1.73
glycan array binding signal (z-score) [9]: -0.068
glycan array binding signal (z-score) [10]: -0.657
glycan array binding signal (z-score) [11]: -0.482
glycan array binding signal (z-score) [12]: 0.014
glycan array binding signal (z-score) [13]: -0.011
glycan array binding signal (z-score) [14]: 0.868
glycan array binding signal (z-score) [15]: -0.463
glycan array binding signal (z-score) [16]: -0.532
glycan array binding signal (z-score) [17]: -0.424
glycan array binding signal (z-score) [18]: -0.666
glycan array binding signal (z-score) [19]: -0.652
glycan array binding signal (z-score) [20]: -0.882
glycan array binding signal (z-score) [21]: 0.282
glycan array binding signal (z-score) [22]: 0.129
glycan array binding signal (z-score) [23]: -0.118
glycan array binding signal (z-score) [24]: -0.795
glycan array binding signal (z-score) [25]: 0.898
glycan array binding signal (z-score) [26]: 0.05
glycan array binding signal (z-score) [27]: -0.555
glycan array binding signal (z-score) [28]: -0.934
glycan array binding signal (z-score) [29]: -0.043
glycan array binding signal (z-score) [30]: 0.366
glycan array binding signal (z-score) [31]: -0.176
glycan array binding signal (z-score) [32]: 0.085
glycan array binding signal (z-score) [33]: 0.228
glycan array binding signal (z-score) [34]: 0.121
glycan array binding signal (z-score) [35]: -0.321
glycan array binding signal (z-score) [36]: -0.203
glycan array binding signal (z-score) [37]: -0.262
glycan array binding signal (z-score) [38]: -0.173
